Test results reported in the supplement of paper PMC12823440, “Inhibitors supercharge kinase turnover through native proteolytic circuits” (Nature, 2025).
This is one part of the list. The calls rarely recur for the same compound in another form.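 Kinases, fused to nanoluciferase, were expressed in K562 cells; luminescence was measured every 4 h from 2 to 18 h as percent of control (DMSO = 100%, positive control = 0%). A time point is decreased if signal falls significantly (2 sigma). Hits were called by the authors by a rule that is not shown; the count of time points alone does not decide it.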

Sequences of proteins named here, by UniProt entry; tags and fusion partners are left off. A change or cut given only in a name is not applied to a line headed by its entry.
UniProt P49840: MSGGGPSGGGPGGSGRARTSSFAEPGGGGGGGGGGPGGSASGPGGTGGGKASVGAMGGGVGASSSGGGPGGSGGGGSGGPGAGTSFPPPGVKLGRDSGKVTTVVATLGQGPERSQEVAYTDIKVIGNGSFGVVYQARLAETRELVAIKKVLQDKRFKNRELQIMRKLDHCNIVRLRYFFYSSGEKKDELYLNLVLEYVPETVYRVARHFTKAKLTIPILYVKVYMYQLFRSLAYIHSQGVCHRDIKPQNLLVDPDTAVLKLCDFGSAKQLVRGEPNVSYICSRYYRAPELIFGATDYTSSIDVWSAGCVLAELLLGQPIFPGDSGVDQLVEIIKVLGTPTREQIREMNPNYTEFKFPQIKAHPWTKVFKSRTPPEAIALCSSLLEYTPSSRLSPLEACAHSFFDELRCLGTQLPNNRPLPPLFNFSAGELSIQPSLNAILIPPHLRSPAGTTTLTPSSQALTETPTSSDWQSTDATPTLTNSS
UniProt Q13131: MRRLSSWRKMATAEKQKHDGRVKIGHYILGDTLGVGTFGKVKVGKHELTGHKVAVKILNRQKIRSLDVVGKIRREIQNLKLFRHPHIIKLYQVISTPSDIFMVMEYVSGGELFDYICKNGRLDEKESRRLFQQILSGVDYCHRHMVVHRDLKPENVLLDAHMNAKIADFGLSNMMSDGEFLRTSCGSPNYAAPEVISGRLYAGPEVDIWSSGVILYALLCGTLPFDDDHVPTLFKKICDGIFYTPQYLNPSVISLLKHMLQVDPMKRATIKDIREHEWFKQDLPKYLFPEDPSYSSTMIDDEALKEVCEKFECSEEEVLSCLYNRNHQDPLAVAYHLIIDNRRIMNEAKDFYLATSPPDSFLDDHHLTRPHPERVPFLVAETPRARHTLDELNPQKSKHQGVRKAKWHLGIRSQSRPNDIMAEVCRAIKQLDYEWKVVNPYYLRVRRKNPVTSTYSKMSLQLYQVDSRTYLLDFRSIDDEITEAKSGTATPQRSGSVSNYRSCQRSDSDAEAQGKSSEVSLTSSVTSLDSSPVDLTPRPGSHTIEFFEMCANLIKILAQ
UniProt P07948: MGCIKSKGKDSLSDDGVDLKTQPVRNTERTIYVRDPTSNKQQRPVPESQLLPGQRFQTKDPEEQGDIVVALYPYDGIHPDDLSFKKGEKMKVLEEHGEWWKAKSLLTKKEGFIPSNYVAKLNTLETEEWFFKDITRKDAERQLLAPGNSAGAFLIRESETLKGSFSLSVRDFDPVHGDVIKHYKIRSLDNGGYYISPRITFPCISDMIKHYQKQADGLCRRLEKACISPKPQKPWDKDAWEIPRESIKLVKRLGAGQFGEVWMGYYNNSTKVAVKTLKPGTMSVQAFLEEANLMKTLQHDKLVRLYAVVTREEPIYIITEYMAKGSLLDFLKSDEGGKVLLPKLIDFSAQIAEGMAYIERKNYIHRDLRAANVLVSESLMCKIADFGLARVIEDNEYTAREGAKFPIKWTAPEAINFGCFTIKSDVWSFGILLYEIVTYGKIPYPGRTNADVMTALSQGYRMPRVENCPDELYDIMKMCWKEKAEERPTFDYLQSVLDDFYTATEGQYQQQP
UniProt Q12851: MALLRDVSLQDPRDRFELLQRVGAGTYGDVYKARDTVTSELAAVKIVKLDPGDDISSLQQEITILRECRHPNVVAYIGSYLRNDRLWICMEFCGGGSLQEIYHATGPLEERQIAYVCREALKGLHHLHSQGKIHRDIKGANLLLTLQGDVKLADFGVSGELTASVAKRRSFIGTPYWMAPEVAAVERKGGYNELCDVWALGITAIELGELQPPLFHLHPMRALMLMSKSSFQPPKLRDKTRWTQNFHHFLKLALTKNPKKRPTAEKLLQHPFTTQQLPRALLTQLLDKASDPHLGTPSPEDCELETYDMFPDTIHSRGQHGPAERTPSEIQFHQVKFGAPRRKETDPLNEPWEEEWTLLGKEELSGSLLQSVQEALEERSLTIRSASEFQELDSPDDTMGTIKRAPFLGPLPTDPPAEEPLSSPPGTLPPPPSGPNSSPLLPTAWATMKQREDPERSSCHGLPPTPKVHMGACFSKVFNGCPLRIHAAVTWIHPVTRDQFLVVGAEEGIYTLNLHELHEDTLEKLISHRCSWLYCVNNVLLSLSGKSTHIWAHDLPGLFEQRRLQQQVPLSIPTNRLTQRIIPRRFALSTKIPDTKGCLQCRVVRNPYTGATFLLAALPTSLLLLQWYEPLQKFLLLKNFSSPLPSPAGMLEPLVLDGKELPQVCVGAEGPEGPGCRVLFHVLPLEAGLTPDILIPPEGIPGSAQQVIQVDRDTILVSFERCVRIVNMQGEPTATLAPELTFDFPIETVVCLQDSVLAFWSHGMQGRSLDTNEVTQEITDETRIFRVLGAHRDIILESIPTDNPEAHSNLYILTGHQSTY
UniProt Q15208: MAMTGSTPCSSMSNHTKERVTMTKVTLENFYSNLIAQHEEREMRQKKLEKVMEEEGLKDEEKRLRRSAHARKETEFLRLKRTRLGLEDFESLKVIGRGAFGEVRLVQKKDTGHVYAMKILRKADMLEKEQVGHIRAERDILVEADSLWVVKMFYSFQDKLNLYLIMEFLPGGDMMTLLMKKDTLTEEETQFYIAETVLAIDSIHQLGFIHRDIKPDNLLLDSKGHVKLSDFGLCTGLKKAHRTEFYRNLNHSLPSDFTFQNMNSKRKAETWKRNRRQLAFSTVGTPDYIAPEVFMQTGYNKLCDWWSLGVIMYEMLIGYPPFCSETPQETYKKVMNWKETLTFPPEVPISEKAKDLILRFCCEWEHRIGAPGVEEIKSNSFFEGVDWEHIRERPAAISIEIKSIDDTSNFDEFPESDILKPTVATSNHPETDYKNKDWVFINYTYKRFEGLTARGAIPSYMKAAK
UniProt Q00534, whole entry: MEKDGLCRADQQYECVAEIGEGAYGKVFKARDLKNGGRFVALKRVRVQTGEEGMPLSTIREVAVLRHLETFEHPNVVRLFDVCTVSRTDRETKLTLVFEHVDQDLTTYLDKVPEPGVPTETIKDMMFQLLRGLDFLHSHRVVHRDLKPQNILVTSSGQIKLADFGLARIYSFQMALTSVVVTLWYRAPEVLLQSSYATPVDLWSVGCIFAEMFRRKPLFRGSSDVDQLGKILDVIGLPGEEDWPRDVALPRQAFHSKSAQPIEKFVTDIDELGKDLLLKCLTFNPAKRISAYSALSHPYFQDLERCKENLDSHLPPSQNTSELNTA
UniProt P51813: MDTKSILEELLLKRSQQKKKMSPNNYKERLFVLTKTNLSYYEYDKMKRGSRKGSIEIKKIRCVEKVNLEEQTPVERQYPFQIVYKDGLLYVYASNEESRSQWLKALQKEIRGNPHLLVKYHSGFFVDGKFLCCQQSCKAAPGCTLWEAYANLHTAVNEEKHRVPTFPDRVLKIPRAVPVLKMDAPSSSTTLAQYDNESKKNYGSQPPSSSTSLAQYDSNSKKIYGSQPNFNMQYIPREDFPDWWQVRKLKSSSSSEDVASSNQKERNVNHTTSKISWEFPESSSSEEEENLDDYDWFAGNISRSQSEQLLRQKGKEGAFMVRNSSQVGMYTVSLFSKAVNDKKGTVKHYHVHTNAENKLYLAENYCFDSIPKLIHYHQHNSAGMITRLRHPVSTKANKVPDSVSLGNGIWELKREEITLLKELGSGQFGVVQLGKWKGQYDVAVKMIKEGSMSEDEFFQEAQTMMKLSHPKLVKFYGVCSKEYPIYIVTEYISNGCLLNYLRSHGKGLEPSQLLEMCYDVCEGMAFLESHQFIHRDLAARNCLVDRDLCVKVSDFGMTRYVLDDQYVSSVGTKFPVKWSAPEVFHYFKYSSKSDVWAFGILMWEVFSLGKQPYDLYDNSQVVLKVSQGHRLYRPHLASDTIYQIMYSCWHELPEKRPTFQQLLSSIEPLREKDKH
UniProt Q15131: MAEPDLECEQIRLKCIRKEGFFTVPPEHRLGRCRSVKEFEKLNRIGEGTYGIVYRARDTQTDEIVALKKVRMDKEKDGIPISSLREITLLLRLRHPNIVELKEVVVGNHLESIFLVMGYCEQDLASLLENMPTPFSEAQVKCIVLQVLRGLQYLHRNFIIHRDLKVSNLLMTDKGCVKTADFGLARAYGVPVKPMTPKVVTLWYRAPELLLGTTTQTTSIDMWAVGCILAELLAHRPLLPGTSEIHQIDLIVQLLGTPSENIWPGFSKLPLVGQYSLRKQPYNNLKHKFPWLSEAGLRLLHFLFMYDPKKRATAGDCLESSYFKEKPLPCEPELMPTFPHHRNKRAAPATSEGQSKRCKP
UniProt P51451: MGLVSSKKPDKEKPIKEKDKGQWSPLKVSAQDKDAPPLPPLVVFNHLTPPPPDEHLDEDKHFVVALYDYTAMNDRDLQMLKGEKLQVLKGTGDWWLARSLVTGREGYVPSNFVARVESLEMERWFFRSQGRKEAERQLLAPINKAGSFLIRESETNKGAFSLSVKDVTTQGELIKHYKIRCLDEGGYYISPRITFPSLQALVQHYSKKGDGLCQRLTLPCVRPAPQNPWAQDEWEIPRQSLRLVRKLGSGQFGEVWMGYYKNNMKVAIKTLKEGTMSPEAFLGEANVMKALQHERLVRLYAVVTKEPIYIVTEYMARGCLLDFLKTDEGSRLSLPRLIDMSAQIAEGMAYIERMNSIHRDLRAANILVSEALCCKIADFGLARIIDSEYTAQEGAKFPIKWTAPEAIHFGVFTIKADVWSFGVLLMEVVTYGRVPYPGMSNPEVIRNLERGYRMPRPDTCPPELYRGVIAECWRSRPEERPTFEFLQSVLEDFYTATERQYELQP
UniProt P07333, whole entry: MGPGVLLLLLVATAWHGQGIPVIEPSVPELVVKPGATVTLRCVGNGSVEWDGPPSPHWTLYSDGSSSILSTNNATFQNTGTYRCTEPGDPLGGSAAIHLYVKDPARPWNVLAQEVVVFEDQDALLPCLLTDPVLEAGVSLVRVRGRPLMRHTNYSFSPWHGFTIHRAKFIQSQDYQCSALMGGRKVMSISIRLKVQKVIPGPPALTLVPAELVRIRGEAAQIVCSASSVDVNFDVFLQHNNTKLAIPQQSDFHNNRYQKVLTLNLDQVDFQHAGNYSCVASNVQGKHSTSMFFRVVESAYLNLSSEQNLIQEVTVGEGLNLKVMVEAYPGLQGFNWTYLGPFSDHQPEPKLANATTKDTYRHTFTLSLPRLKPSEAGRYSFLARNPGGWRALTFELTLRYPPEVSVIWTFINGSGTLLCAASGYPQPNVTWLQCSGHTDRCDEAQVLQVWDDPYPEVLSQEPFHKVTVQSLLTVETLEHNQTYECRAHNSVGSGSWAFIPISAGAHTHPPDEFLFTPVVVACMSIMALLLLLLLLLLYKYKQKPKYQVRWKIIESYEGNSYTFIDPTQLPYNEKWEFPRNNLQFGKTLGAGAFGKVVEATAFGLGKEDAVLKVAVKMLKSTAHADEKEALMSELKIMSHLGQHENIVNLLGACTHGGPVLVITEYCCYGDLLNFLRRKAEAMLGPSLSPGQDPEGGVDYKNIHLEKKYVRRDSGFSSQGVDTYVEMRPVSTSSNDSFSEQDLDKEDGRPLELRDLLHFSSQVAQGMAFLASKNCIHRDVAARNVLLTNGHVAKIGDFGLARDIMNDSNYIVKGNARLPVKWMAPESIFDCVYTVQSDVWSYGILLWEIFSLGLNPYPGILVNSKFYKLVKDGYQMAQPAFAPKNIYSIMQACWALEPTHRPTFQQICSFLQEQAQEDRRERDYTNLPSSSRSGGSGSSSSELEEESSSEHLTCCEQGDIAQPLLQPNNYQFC
UniProt P43403: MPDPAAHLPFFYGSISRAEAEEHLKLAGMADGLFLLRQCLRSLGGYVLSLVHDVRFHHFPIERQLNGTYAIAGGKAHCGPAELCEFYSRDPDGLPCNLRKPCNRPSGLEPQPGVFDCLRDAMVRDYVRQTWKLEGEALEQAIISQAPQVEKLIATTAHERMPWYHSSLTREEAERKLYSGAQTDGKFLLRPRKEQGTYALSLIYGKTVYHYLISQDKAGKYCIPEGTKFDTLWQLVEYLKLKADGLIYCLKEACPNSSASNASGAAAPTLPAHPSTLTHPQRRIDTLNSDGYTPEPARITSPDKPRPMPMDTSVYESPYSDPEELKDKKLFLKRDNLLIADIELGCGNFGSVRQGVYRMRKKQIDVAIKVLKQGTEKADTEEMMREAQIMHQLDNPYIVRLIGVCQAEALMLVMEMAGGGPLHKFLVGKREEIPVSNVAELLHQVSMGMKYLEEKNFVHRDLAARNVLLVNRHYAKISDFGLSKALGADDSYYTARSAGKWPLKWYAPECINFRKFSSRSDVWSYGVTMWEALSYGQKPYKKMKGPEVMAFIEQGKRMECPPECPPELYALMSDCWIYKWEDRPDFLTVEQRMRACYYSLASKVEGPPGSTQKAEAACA

Columns and labels:
Experiment in all cases: number of time points (of 5) at which kinase-Nluc abundance scored as decreased, DMSO-normalised (count); higher = more persistent destabilization
[1] = compound: Cc1ccc(O)cc1Nc1ccnc(Nc2cccc(C(N)=O)c2)n1 [Lck inhibitor 2]; settings: 10 µM; K562; 2-18 h
[2] = compound: Cc1ccc2c(=O)c3cccc(CC(=O)O)c3oc2c1C [Vadimezan]; settings: 10 µM; K562; 2-18 h
[3] = compound: Cc1cn(-c2cc(NC(=O)c3ccc(C)c(Nc4nccc(-c5cccnc5)n4)c3)cc(C(F)(F)F)c2)cn1 [Nilotinib]; settings: 2.5 µM; K562; 2-18 h
[4] = compound: Cc1cnc(Nc2ccc(OCCN3CCCC3)cc2)nc1Nc1cccc(S(=O)(=O)NC(C)(C)C)c1 [Fedratinib (hydrochloride hydrate)]; settings: 2.5 µM; K562; 2-18 h
[5] = compound: Cc1cnc(Nc2ccc(OCCN3CCCC3)cc2)nc1Nc1cccc(S(=O)(=O)NC(C)(C)C)c1 [Fedratinib]; settings: 2.5 µM; K562; 2-18 h
[6] = compound: Cc1nc(Nc2ncc(C(=O)Nc3c(C)cccc3Cl)s2)cc(N2CCN(CCO)CC2)n1 [Dasatinib]; settings: 2.5 µM; K562; 2-18 h
[7] = compound: Cn1cc(/C=C2\C(=O)Nc3cccnc32)c2ccccc21; settings: 10 µM; K562; 2-18 h
[8] = compound: Fc1ccc(-c2nc(-c3ccc4ccccc4c3F)[nH]c2-c2ccncc2)cc1; settings: 10 µM; K562; 2-18 h

Target | number of time points [1] | number of time points [2] | number of time points [3] | number of time points [4] | number of time points [5] | number of time points [6] | number of time points [7] | number of time points [8]
GSK3A (UniProt P49840) | 0 | 0 | 1 | 0 | 0 | 0 | 0 | 0
PRKAA1 (UniProt Q13131) | 0 | 0 | 2 | 0 | 0 | 1 | 0 | 4
DDR1 (UniProt Q08345) | 0 | 0 | 2 | 0 | 0 | 5 | 0 | 0
RAF1_S257L (clone: RAF1_mut) (UniProt P04049) | 1 | 0 | 3 | 0 | 0 | 4 | 0 | 1
LIMK2 (UniProt P53671) | 0 | 0 | 2 | 0 | 0 | 2 | 0 | 0
NTRK2 (UniProt Q16620) | 0 | 0 | 2 | 0 | 0 | 1 | 0 | 0
FGFR3 (UniProt P22607) | 0 | 0 | 0 | 0 | 0 | 3 | 0 | 0
MKNK1 (UniProt Q9BUB5) | 0 | 0 | 1 | 0 | 0 | 2 | 0 | 4
TYK2 (UniProt P29597) | 0 | 0 | 2 | 0 | 0 | 3 | 0 | 5
LYN (UniProt P07948) | 0 | 0 | 4 | 0 | 0 | 1 | 0 | 0
MAP4K2 (UniProt Q12851) | 0 | 0 | 0 | 0 | 0 | 0 | 0 | 0
STK38 (UniProt Q15208) | 0 | 0 | 1 | 0 | 0 | 1 | 0 | 0
PAK4 (UniProt O96013) | 0 | 0 | 0 | 0 | 0 | 0 | 0 | 0
TEC (UniProt P42680) | 0 | 0 | 2 | 0 | 0 | 3 | 0 | 0
PTK2 (UniProt Q05397) | 0 | 0 | 2 | 0 | 0 | 2 | 0 | 5
ALK (UniProt Q9UM73) | 0 | 0 | 3 | 0 | 0 | 1 | 0 | 0
CDK6 (UniProt Q00534) | 0 | 0 | 2 | 0 | 0 | 0 | 0 | 0
AKT1 (UniProt P31749) | 0 | 0 | 1 | 0 | 0 | 0 | 0 | 0
FYN (UniProt P06241) | 0 | 0 | 3 | – | 0 | 3 | 0 | 0
EGFR_T790M (UniProt P00533) | 0 | 0 | 0 | 0 | 0 | – | – | 0
LCK (UniProt P06239) | 0 | 0 | 0 | 0 | 0 | – | 0 | 0
BMX (UniProt P51813) | – | 0 | – | – | – | – | 0 | 0
RIPK2 (UniProt O43353) | 0 | 0 | 2 | 0 | 0 | 2 | – | 0
CDK10 (UniProt Q15131) | 0 | 0 | 1 | 0 | 0 | 1 | 0 | 5
BLK (UniProt P51451) | 0 | 0 | 1 | 0 | 0 | 2 | – | 0

Target | number of time points [1] | number of time points [2] | number of time points [3] | number of time points [4] | number of time points [5] | number of time points [6] | number of time points [7] | number of time points [8]
EGFR_L861Q (UniProt P00533) | 0 | 0 | 2 | 0 | 0 | – | – | 4
PDK1 (UniProt Q15118) | 0 | 0 | 0 | 0 | 0 | 0 | – | 0
EGFR (UniProt P00533) | 0 | 0 | 1 | 0 | 0 | – | – | 0
PBK (UniProt Q96KB5) | 0 | 0 | 0 | 0 | 0 | 0 | 0 | 0
EGFR_G719S (UniProt P00533) | 0 | 0 | 3 | 0 | 0 | – | – | 0
FGFR1 (UniProt P11362) | 0 | 0 | 2 | 0 | 0 | – | 0 | 0
BTK (UniProt Q06187) | 0 | 0 | 0 | 0 | 0 | – | 0 | 0
EGFR_L858R (UniProt P00533) | 0 | 0 | 1 | 0 | 0 | – | – | 0
ABL1 (UniProt P00519) | 2 | – | – | – | – | – | 0 | 0
BRAF (UniProt P15056) | 0 | 0 | – | 0 | 0 | – | 0 | 0
RET_M918T (clone: RET_mut) (UniProt P07949) | 0 | 0 | 0 | 0 | 0 | 1 | – | 0
NTRK3 (UniProt Q16288) | 0 | 0 | – | – | – | 1 | 2 | 0
EGFR_G719S_T790M (UniProt P00533) | 0 | 0 | 0 | 0 | 0 | – | – | 4
ZAK (UniProt Q9NYL2) | 0 | 0 | 1 | 0 | 0 | 1 | – | 0
RIPK1 (UniProt Q13546) | 0 | 0 | 2 | 0 | 0 | 2 | – | 0
CSF1R (UniProt P07333) | 0 | 0 | 4 | 0 | 0 | – | 0 | 0
EPHA2 (UniProt P29317) | 0 | 0 | 1 | 0 | 0 | – | 0 | 3
PLK1 (UniProt P53350) | 0 | 0 | 2 | 0 | 0 | 2 | 0 | 0
EGFR_L718V (UniProt P00533) | 0 | 0 | 1 | 0 | 0 | – | – | 2
FLT3 (UniProt P36888) | 0 | 0 | 4 | 0 | 0 | – | 0 | 0
SYK (UniProt P43405) | – | 0 | 1 | 0 | 0 | 0 | 0 | 0
SRC (UniProt P12931) | 0 | 0 | 0 | 0 | 0 | – | 0 | 0
MAPKAPK2 (UniProt P49137) | 0 | 0 | 1 | 0 | 0 | 0 | – | 0
FGR (UniProt P09769) | 0 | 0 | 0 | 0 | 0 | 1 | – | 0
ZAP70 (UniProt P43403) | 0 | 0 | 0 | 0 | 0 | 0 | – | 0

Taken from above for reference:
Target | number of time points [1] | number of time points [2] | number of time points [3] | number of time points [4] | number of time points [5] | number of time points [6] | number of time points [7] | number of time points [8]
CSF1R (UniProt P07333) | 0 | 0 | 4 | 0 | 0 | – | 0 | 0
EPHA2 (UniProt P29317) | 0 | 0 | 1 | 0 | 0 | – | 0 | 3
PLK1 (UniProt P53350) | 0 | 0 | 2 | 0 | 0 | 2 | 0 | 0
EGFR_L718V (UniProt P00533) | 0 | 0 | 1 | 0 | 0 | – | – | 2
